The list shows a part of the results.
Test system: T1, CTL2-GFP (C. trachomatis L2/434/Bu, GFP-expressing)
T1 construct: L2/434/Bu, GFP-expressing
Parameters: species or system HeLa; Intracellular C. trachomatis growth in HeLa cells, bulk GFP fluorescence relative to DMSO
Settings: bulk GFP, single well; 28.5 h, 10 µM; inhibitor

SMILES	% of control remaining [%]
Cc1cc(C2CCCCCN2S(=O)(=O)c2ccc3[nH]c(=O)[nH]c(=O)c3c2)on1 (centres unmarked) [CBK286405]	128.122
COc1cc(-c2cc(C(=O)O)c3c(-c4ccc(C)cc4)n[nH]c3n2)ccc1O [CBK287268]	159.608
NC(=O)C1CCN(Cc2cc3c(cc2[N+](=O)[O-])OCO3)CC1 [CBK261885]	99.3439
Cc1ccc(C(=O)NC(CC(C)C)c2nnc3n2CCNCC3)c(F)c1 (centres unmarked) [CBK306817]	144.813
CCNC(=O)O[C@@H]1CO[C@H]2[C@@H]1OC[C@@H]2NC(=O)c1ccc(C)cc1 [CBK289472]	114.424
Cc1cn([C@H]2C[C@@H](O)[C@@H](CI)O2)c(=O)[nH]c1=O [CBK201197]	160.055
COCC(C)NCc1cc(-c2ccc(Cl)cc2)c[nH]c1=O (centres unmarked) [CBK284726]	139.926
CC(C)(C)C(=O)NCCn1nc(-c2cccs2)oc1=O [CBK282344]	105.306
Cc1noc(C)c1CC(=O)N(C)CCN1CCCCC1 [CBK281855]	129.266
O=C(O)c1cccc2c1C(=O)N(Cc1ccccc1F)C2 [CBK291172]	147.636
COc1ccccc1-c1ncc(OCCN2CCOCC2)nc1N [CBK145072]	120.247
Cc1ccccc1-c1nc2ccc(NC(=O)CCC(=O)O)cc2o1 [CBK269904]	122.126
Cc1nnc(Sc2cc(C(F)(F)F)ccn2)s1 [CBK115215]	106.581
Cc1nn(CC(C)C)c(C)c1CCC(=O)N(C)Cc1c(C)nn(-c2ccccc2)c1C [CBK295301]	83.7657
O=C(Nc1ccc(Cl)cc1)N1CCN(c2ccccc2)CC1 [CBK155188]	147.528
CCOC(=O)C1(C2CCCCC2)CCN(C(=O)CN2C(=O)CSC2=O)CC1 [CBK160993]	93.4088
COc1ccc(C(C)C)cc1-c1cncc(N[C@@H](C)c2ccccc2)n1 [CBK065504]	95.6776
N#Cc1ccc(CN2CCCN(S(=O)(=O)c3ccc(C(=O)c4ccccc4)cc3)CC2)cc1 [CBK062962]	99.2503
Cc1nc(N2CCCC2)ncc1-c1cc(=O)[nH]c(N2CCCCC2)n1 [CBK288226]	127.413
Cc1noc(C)c1S(=O)(=O)Nc1cc(C(F)(F)F)ccc1N1CCOCC1 [CBK062545]	118.356
O=C1Cc2c(ccc3ccccc23)C2(CCN(CCCC(F)(F)F)CC2)N1 [CBK039912]	176.383
CO[C@H]1CC[C@H](C(=O)NC(c2ccccc2)c2nccn2C)CC1 (some centres unmarked) [CBK283852]	108.429
CC(C)(C)c1ccc(S(=O)(=O)N2CCCCC2CCO)cc1[N+](=O)[O-] (centres unmarked) [CBK200067]	102.61
COC(=O)C(N)c1c[nH]c2ccccc12 (centres unmarked) [CBK089840]	119.165
CN1CCN(C(=O)C2CCCN(S(=O)(=O)c3ccc(Br)cc3)C2)CC1 (centres unmarked) [CBK269006]	99.0217
Fc1ccc(CCN2CCC(Oc3cncc(OCC4COc5ccccc5O4)n3)C2)cc1 (centres unmarked) [CBK084383]	100.615

SMILES	% of control remaining [%]
CCNC(=O)N1CC2(CCN(CCCC#N)CC2)c2ccccc21 [CBK136970]	112.605
CN1CCCc2c1nc1ccc(Br)cc1c2N [CBK009692G]	102.461
COc1cc(CNn2c(C)nnc2S)cc(Br)c1OCC(=O)NC(C)(C)C [CBK266575]	93.0723
O=C1NC(Nc2ccc(SCCN3CCOCC3)cc2)c2ccccc21 (centres unmarked) [CBK010123]	125.811
CC(C)C(=O)NC1CCN(C(=O)CCn2ccc3ccncc32)CC1 [CBK284730]	74.4662
CC(Oc1ccc(Cl)cc1Cl)C(=O)Nc1ccc(N2CCN(C)CC2)c(Cl)c1 (centres unmarked) [CBK268563]	138.622
O=[N+]([O-])c1ccc(N2CCN(CCO)CC2)cc1NCc1ccc(Cl)cc1 [CBK042201]	143.114
O=C(NC(=S)Nc1ccc2[nH]c(=O)[nH]c2c1)c1ccc(OCc2ccccc2)cc1 [CBK268908]	134.896
CN(C)C(=O)Cc1ccc(Cn2ccnc(N3CCC(Sc4ccccc4)CC3)c2=O)cc1 [CBK153652]	72.3915
CC(=O)c1cccc(NC(=O)CN2CCCC2c2cccs2)c1 (centres unmarked) [CBK305143]	128.022
Nc1cc(O)nc(SCCN2CCN(c3ccc(C(F)(F)F)cc3[N+](=O)[O-])CC2)n1 [CBK265225]	100
Cc1cn(S(=O)(=O)c2ccc(Br)cc2)cn1 [CBK026488]	119.338
COc1ccc(C2(CNC(=O)C(O)COc3ccccc3)CCCC2)cc1OC (centres unmarked) [CBK014053]	152.697
COc1ccc(S(=O)(=O)N2Cc3ccccc3CC2C(=O)Nc2sc3c(c2C#N)CCCC3)cc1 (centres unmarked) [CBK266363]	89.6915
CCCn1c(SCC(=O)N2CCOCC2)nc2ccc(Br)cc2c1=O [CBK305929]	124.017
CCc1nc2ccc(C(=O)N(C)Cc3ccco3)cn2c1N(C)Cc1cccs1 [CBK145552]	172.33
Cc1cc(C(=O)Nc2ccc3ncccc3c2)ccc1Cl [CBK159804]	112.676
O=C(c1c[nH]c(C(=O)N2CCN(c3ncccn3)CC2)c1)c1ccc(Cl)cc1Cl [CBK107418]	108.505
O=C(Nc1cccc(-c2nnn[nH]2)c1)Nc1ccc(Cl)c(Cl)c1 [CBK155454]	120.346
CCOC(=O)c1cn(CC2CC2)c2cc(F)c(F)cc2c1=O [CBK304195]	113.486
COCCNC(=O)c1ccc(-c2ccc(OC)cc2)nc1N1CCN(C(=O)c2ccco2)CC1 [CBK106010]	122.062
CC(C)CC(CO)Nc1ncnc2ccc(S(C)(=O)=O)cc12 (centres unmarked) [CBK304203]	112.287
O=C(CN1CCN(c2ccc(C(F)(F)F)cn2)CC1)Nc1ccc2c(c1)OCO2 [CBK074680]	119.418
CC(=O)Nc1ccc(S(=O)(=O)NC2(C(F)(F)F)C(=O)Nc3c2c(=O)[nH]c(=S)n3C2CCCCC2)cc1 (centres unmarked) [CBK268683]	113.418
O=C(CCSc1ccc(Cl)cc1)Nc1ccc(S(=O)(=O)N2CCOCC2)cc1 [CBK264133]	100
O=c1[nH]cc(-c2ccccc2)cc1CNc1ccccc1-n1ccnc1 [CBK284769]	87.3886

Compounds above containing a cyano group:
SMILES	% of control remaining [%]
N#Cc1ccc(CN2CCCN(S(=O)(=O)c3ccc(C(=O)c4ccccc4)cc3)CC2)cc1 [CBK062962]	99.2503
CCNC(=O)N1CC2(CCN(CCCC#N)CC2)c2ccccc21 [CBK136970]	112.605
COc1ccc(S(=O)(=O)N2Cc3ccccc3CC2C(=O)Nc2sc3c(c2C#N)CCCC3)cc1 (centres unmarked) [CBK266363]	89.6915

Next compounds follow:

SMILES	% of control remaining [%]
Cc1cccc(C)c1N1CCN(CCn2c(=S)[nH]c3ccccc3c2=O)CC1 [CBK267998]	113.494
CCC(C)NS(=O)(=O)c1ccc(OCC(=O)O)cc1 (centres unmarked) [CBK266521]	111.425
O=C(O)c1ccsc1NS(=O)(=O)c1ccc(Oc2ccccc2)cc1 [CBK042259]	159.06
O=C(O)c1ccc(Cl)c(-c2ccc(/C=N/Nc3ccc([N+](=O)[O-])cc3)o2)c1 [CBK078331]	121.061
CCCCNC(=S)N[C@H]1CC[C@@]2(C3=CC=CC4C=CC=CC34)CCN(C)[C@H]2C1 (some centres unmarked) [CBK003610C]	107.996
COc1nccnc1OC1CCN(Cc2ccc([N+](=O)[O-])cc2)CC1 [CBK084245]	72.7607
CC(C)C(=O)Nc1c(-c2ccccc2)cnc2ncccc12 [CBK083713]	84.8673
CCCCC(Sc1ccc2nnc(-c3ccccn3)n2n1)C(=O)O (centres unmarked) [CBK287622]	186.119
COc1ccccc1/C=C(/NC(=O)c1ccc(Cl)cc1Cl)C(=O)O [CBK263998]	108.273
O=C(Nc1cccc(Br)c1)/C(=C\c1cccnc1)NC(=O)c1ccccc1 [CBK261450]	122.243
Cc1ccc(OCC(=O)NC(=S)Nc2cc(C(=O)O)ccc2C)cc1 [CBK265000]	100
CC(=O)c1ccccc1NC(=O)CSCC(=O)O [CBK057752]	129.387
O=C(CC(CN1CCN(CCN2CCCC2)CC1)C(=O)O)Nc1ccccc1 (centres unmarked) [CBK286833]	120.207
COc1cnc(C(=O)NCc2ccccc2Cl)cc1O [CBK287993]	140.478
Cc1ccccc1CSCC(=O)NCCN1CCOCC1 [CBK269207]	125.87
O=C(NCc1nnc(-c2cccs2)o1)C1(c2ccccc2)CC1 [CBK284635]	129.111
O=C(Nc1c(F)cc(F)cc1OC1CCNCC1)c1cnccn1 [CBK050273T]	112.387
CN1C[C@@H](C(=O)NC(C)(C)C)[C@@]2(CCc3ccccc3C(=O)N2)C1 [CBK284796]	135.189
CC(C)NC(=O)N[C@H]1CCN2C(=O)N(c3cccc4nsnc34)C(=O)[C@@H]2C1 [CBK289539]	86.4894
CS(=O)(=O)c1ccc(CN2C[C@@H]3OCC(=O)N(Cc4ccc(F)cc4)[C@@H]3C2)cc1 [CBK289690]	124.035
Cc1cc(C[C@@H]2COC[C@H]2NCc2cccc(Cl)c2)on1 [CBK284885]	136.731
Cc1nc2sc3c(c2c2nc(CCC(=O)O)nn12)CC(C)(C)OC3 [CBK269168]	134.072
O=S(=O)(Nc1ccccc1O)c1ccc(OC(F)(F)F)cc1 [CBK043512]	111.693
CCc1nn2c(C3CCNCC3)ccnc2c1-c1cccs1 [CBK284226]	127.878
COc1ncc(-c2nccnc2NCc2ccc(F)cc2)c(OC)n1 [CBK037668]	216.225

Source: paper PMC12040169 (PLOS Biology, 2025)
